Results are given in words; binding and its absence hold for the method and conditions named. Some results given as binding are weak or reduced against the parent protein; the word gives no strength.
T1: human interleukin-38 (IL-38) (human) (UniProt Q8WWZ1)
T1 sequence (looked up): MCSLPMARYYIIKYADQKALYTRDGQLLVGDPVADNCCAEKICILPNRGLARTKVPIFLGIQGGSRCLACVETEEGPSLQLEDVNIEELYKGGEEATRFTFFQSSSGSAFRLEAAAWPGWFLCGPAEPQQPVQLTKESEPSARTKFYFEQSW

T2: mouse IL-38 (mouse) (UniProt Q8R459)
T2 sequence (looked up): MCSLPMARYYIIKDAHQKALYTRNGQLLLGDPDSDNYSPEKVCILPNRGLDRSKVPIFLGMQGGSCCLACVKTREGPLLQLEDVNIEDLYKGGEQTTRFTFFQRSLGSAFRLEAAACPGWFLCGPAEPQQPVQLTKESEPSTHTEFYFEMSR


How the values were obtained:
[1] = target: T1, human interleukin-38 (IL-38) (human); assay: CDI HuProt native protein microarray
[2] = target: T1, human interleukin-38 (IL-38) (human); assay: summary of in vitro assays
[3] = target: T1, human interleukin-38 (IL-38) (human); assay: BLI (Octet QKe)
[4] = target: T2, mouse IL-38 (mouse); assay: BLI (Octet QKe)

Binder	binding [1]	binding [2]	binding [3]	binding [4]
NZB-M8 (antibody, V domains shown) VH: EVQLQQSGPELVKPGASVKISCKASGYSFTGYYMHWVKQSPEKSLEWIGVINPNTGGITYNQKFKAKATLNVDKSSSTAYMQLKSLTSEDSAVYYCARSMGVWGQGTLVTVSA VL: DIVMTQAAPSVSVTPGESVSISCRSSKSLLHSNGNTYLYWFLQRPGQSPQLLIYRMSNLASGVPDRFSGSGSGTAFTLRISRVEAEDVGVYYCMQYLEYPFTFGSGTKLEIK	binds	–	–	–
CD1-M3 (antibody, V domains shown) VH: EVQLQQSGPELVKPGASVKIPCKASGYTFTDYNMDWVKQSHGKSLEWIGDINPNNGGTIYNQKFKGKATLTVDKSSSTAYMELRSLTSEDTAVYYCSRPYYGYFAYWGQGTLVTVSA VL: DVVMTQSPLSLPVSLGDQASISCRSSQSLVHSHENTFLHWYLQKPGQSPKLLIYRVSNRFSGVPDRFSGSGSGTDFTLKISRVEAEDLGVYFCSQSTHVPLTFGAGTKLELK	binds	binds	binds	binds
CD1-M8 (antibody, V domains shown) VH: EVQLQQSGPELVKPGASVKMSCKASGYTFTDYYIHWVKQSHGKGLEWIGYIFPNNGGNGYSQKFKGKATMTVDKSSSTAYMELRSLTSEDSAVYYCARGGYDAGFVYWGQGTLVTVSA VL: DIVMSQSPSSLAVSAGEKVTMSCKSSQSLFNSGARKNFLAWYQQKPGQSPKLLIYWASTRESGVPDRFTGSGSGTDFTLTISSVQAEDLAVYYCKQSYYLITFGAGTKLELK	binds	binds	–	–

From patent publication US20240174741A1
